Reference: the supplement of paper PMC6078165
The reference is the same well before dosing, and untreated signal decays as well.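 Fibroblast labels name human fibroblasts: mostly primary ones from tissues such as uterus (C12385, HUF), lung (H6013), bone (Hs27A), adrenal (HADF) and skin (WS1), plus mammary HMF and breast cancer-associated Hs343T. The cancer cells are basal-like or mesenchymal-like triple-negative breast cancer lines. The paper calls a changed response a hit when it shifts by more than 3x the replicate standard deviation. The tissue of the other fibroblasts is not given here.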

System: MDAMB436
Assay: relative JC-1 red fluorescence (viability) vs pre-drug, coculture with fibroblast (fraction); higher = more viable cancer cells
Conditions: 100 µM
Procedure: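 JC-1 labelled TNBC cells cocultured 1:1 (1,500 cells each) with CellTrace Violet stained primary or stromal fibroblasts in 384-well plates in FluoroBrite medium, treated with one of 42 anticancer drugs at 0.1, 1, 10 or 100 uM. JC-1 red fluorescence (mitochondrial integrity in cancer cells only) was read by plate reader every 8 h for 72 h. Values are normalised to each well's pre-drug value. The stock of one drug was tenfold lower, so its dose labels may be too high.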

O=C(O)C(=O)O.[NH-][C@@H]1CCCC[C@H]1[NH-].[Pt+2] [Oxaliplatin]
relative JC-1 red fluorescence
Conditions	8 h	16 h	24 h	32 h	40 h	48 h	56 h	64 h	72 h
coculture fibroblast: C12385	0.841	0.737	0.7096	0.629	0.5824	0.557	0.531	0.5076	0.493
coculture fibroblast: H6013	0.894	0.798	0.792	0.774	0.753	0.763	0.7249	0.707	0.667
coculture fibroblast: H6019	0.776	0.7265	0.7167	0.643	0.594	0.566	0.531	0.504	0.476
coculture fibroblast: H6076	0.821	0.712	0.653	0.602	0.566	0.5409	0.528	0.513	0.508
coculture fibroblast: H6231	0.798	0.746	0.663	0.617	0.585	0.5402	0.5214	0.502	0.487
coculture fibroblast: HADF	0.8516	0.768	0.774	0.755	0.756	0.777	0.718	0.719	0.665
coculture fibroblast: HCFa	0.859	0.784	0.768	0.756	0.733	0.752	0.693	0.69	0.636
coculture fibroblast: HCPF	0.782	0.7175	0.648	0.595	0.5667	0.5318	0.5041	0.494	0.474
coculture fibroblast: HHSteC	0.8695	0.804	0.7888	0.754	0.746	0.757	0.694	0.677	0.627
coculture fibroblast: HMF	0.785	0.707	0.615	0.58	0.564	0.532	0.5265	0.518	0.51
coculture fibroblast: HPFa	0.947	0.873	0.885	0.866	0.884	0.917	0.856	0.848	0.798
coculture fibroblast: HUF	0.869	0.753	0.751	0.6633	0.61	0.5898	0.56455	0.5518	0.5473
coculture fibroblast: Hs5	0.863	0.739	0.722	0.665	0.631	0.584	0.581	0.558	0.545
coculture fibroblast: Hs27A	0.852	0.828	0.809	0.786	0.781	0.843	0.772	0.765	0.709
coculture fibroblast: Hs343T	0.836	0.713	0.648	0.607	0.579	0.549	0.528	0.515	0.509
coculture fibroblast: WS1	0.8181	0.715	0.673	0.5949	0.543	0.514	0.488	0.457	0.442
